Source: PubChem BioAssay AID1671195 (Yale University, 2021)
Assay: 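Knockdowns that increase or decrease uptake of fluorescent LDL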 (primary screen). Cell system: human Huh7 hepatoma cells. Reagents: siRNA pool against human genes, 18 nM. Duration: about 2 to 2.5 days of knockdown, then 8 h LDL uptake. Treatment: DiI-labelled LDL at 30 µg/ml for 8 h, in lipoprotein-deficient serum medium. Detection: 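Per-cell DiI-LDL intensity by automated imaging; well means scaled to the plate median and given as a robust z-score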. Reading the numbers: robust z-score: higher = more LDL uptake after knockdown. Rule for the call: 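a gene counts as active if at least two replicate z-scores exceed ±2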.
This is a random part of about 22,000 reagents tested. Over the whole deposit, about 1,510 (6.9%) are marked active. 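Active includes knockdowns raising or lowering LDL uptake; positive z-scores mean more uptake, negative mean less.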 No sequences are given here.

Gene	robust z-score, replicate 1	robust z-score, replicate 2	robust z-score, replicate 3	Outcome
IFNA4	2.44	1.57	2.71	active
C4orf50	0.267	0.646	0.761	inactive
PPIAP16	-0.0749	-0.605	-0.413	inactive
CKMT2	-0.738	-0.564	0.0872	inactive
SELPLG	0.118	0.551	-1.06	inactive
POLD4	-0.442	-0.611	-0.112	inactive
NPHS1	-1.06	0.492	0.185	inactive
RCN2	0.925	0.895	1.03	inactive
ESRRB	-0.147	-0.161	-0.32	inactive
H1-8	-0.758	-1.03	-0.0569	inactive
MRPS26	0.214	0.0151	0.303	inactive
ABCC6	-1.14	-1.25	-1.38	inactive
DBH	0.375	1.04	0.76	inactive
SAR1A	-0.799	1.13	0.109	inactive
LOC442203 (retired record)	-1.4	-2.02	-1.82	inactive
GPR156	-1.32	-1.36	-1.68	inactive
AASDH	-0.114	-0.981	-0.384	inactive
LOC401506 (retired record)	0.114	0.586	0.501	inactive
ZYX	1.45	0.892	2.07	inactive
LOC389910 (retired record)	-1.62	-1.87	-1.54	inactive
PLCXD1	-0.438	-2.28	-0.737	inactive
TARS3	-0.225	0.58	0.487	inactive
LOC442534 (retired record)	-0.173	0.765	0.778	inactive
ATP5PB	0.474	0.504	0.468	inactive
HNRNPR	-0.069	-0.0798	0.314	inactive
NCF2	-0.15	0.376	0.268	inactive
LOC440790 (retired record)	-0.259	-0.0298	-0.0593	inactive
B3GALNT1	-0.035	-1.1	-0.368	inactive
DEFB112	1.02	1.11	0.822	inactive
LINC02724	-2.15	-2.16	-2.88	active
TUBGCP4	-1.79	-1.13	-1.67	inactive
FAM9A	-0.171	-0.596	-0.475	inactive
F11-AS1	1.04	1.11	1.16	inactive
MED14	0.3	-2.62	-0.189	inactive
TAAR8	1.57	0.887	1.3	inactive
TMEM158	0.0553	0.588	0.509	inactive
KIAA0513	0.774	-0.948	-0.713	inactive

Already shown: 7 of the entries above.
Gene	robust z-score, replicate 1	robust z-score, replicate 2	robust z-score, replicate 3	Outcome
MRPS26	0.214	0.0151	0.303	inactive
ABCC6	-1.14	-1.25	-1.38	inactive
DBH	0.375	1.04	0.76	inactive
SAR1A	-0.799	1.13	0.109	inactive
LOC442203 (retired record)	-1.4	-2.02	-1.82	inactive
GPR156	-1.32	-1.36	-1.68	inactive
AASDH	-0.114	-0.981	-0.384	inactive

Next entries follow.
Gene	robust z-score, replicate 1	robust z-score, replicate 2	robust z-score, replicate 3	Outcome
DPP10	-1.38	-1.2	-1.4	inactive
PPP3CA	0.275	1.78	-0.807	inactive
MCM8	-1.11	-0.595	-0.93	inactive
MUC13	-0.919	0.574	1.06	inactive
MS4A4A	0.691	-0.72	0.124	inactive
TOX	-0.0507	-1.09	-0.782	inactive
VHL	-0.927	-1.94	-1.42	inactive
BPIFA1	1.62	0.953	2.07	inactive
CCDC69	0.391	1.68	0.0125	inactive
ANO9	-1.21	-1.23	-1.55	inactive
LOC389602	0.248	0.484	0.538	inactive
CERCAM	-0.29	-0.849	0.145	inactive
OR51I2	-0.602	-0.251	-0.88	inactive
KATNA1	1.15	0.351	0.953	inactive
LOC441174 (retired record)	2.91	0.733	0.927	inactive
ASTL	-0.629	-1.09	-0.945	inactive
RNASEL	-0.599	-0.589	-1.43	inactive
LOC388655 (retired record)	-1.45	-0.772	-1.29	inactive
MESTP4	-0.398	-1.41	-0.344	inactive
ACTR3BP2	1.73	1.72	2.13	inactive
LOC441351 (retired record)	0.503	-0.371	0.114	inactive
CBLB	0.928	0.11	0.35	inactive
NOXO1	-0.804	1.36	0.725	inactive
CHRNA4	0.0229	0.299	0.478	inactive
LPCAT4	-1.32	-1	-0.707	inactive
OR8U9	-0.855	-1.31	-1.28	inactive
PXMP4	-0.0995	-1.05	0.193	inactive
ZNF706	0.288	-0.784	-1.59	inactive
LIX1L	-0.13	-0.275	0.565	inactive
QTRT1	-0.418	0.187	-0.527	inactive
ATP5MC1	1.22	0.583	0.226	inactive
DVL3	-0.702	-0.449	-0.673	inactive
SENP8	0.325	-0.109	1.42	inactive
CHRNA1	-0.0866	-0.136	-0.261	inactive
KLRK1	-1.18	-1.72	-1.67	inactive
SLC17A7	2.41	2.08	1.26	active
CAMTA1	0.718	-0.178	1.43	inactive
RFFL	1.56	0.27	1.48	inactive
NFE2L1	1.76	1.52	1.14	inactive
APOB	0.198	0.0406	-0.726	inactive
MYL12A	0.723	1.23	0.921	inactive
GALNTL5	-0.342	-0.116	-0.012	inactive
ENPP1	-1.1	-0.832	-1.48	inactive
HDAC2	-0.975	-0.655	-0.996	inactive
SLMAP	1.68	2.14	-0.12	inactive
PPP1R26	-1.95	-0.835	-1.62	inactive
PEA15	1.72	1.14	0.648	inactive
SDR16C5	0.51	0.181	-0.0249	inactive
MARVELD3	-1.69	-2.22	-1.37	inactive
RTCA	0.617	0.397	1.07	inactive
